# Several values for one entry are separate records, joined by “and”; a condition that tells them apart may be missing. Equal entries are not always repeated. This is one part of the list. The main result of the screen is listed elsewhere. These columns were measured beside it and carry no call. For some of these results: Compounds called inactive in the main read-out are mostly missing here. For some of these results: Words in brackets tell the shape of the fitted curve; partial curves, single points and poor fits give uncertain potencies.
# Tests used:
# [1] = Validation of Assay for Modulators of Lamin A Splicing (AID 1459); conditions: Lamin A splicing dual RFP/GFP fluorescence reporter, ratio
# How it was run: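 S3 HeLa cells stably expressing a lamin A-EGFP splicing minigene and DsRed2 were seeded at 600 cells/well in Opti-MEM with 2% FBS, pin-dosed, and incubated 48 hrs at 37 °C, 5% CO2. Laser-scanning cytometry (488 nm) gave GFP/RFP total intensity ratio.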
# [2] = qHTS Assay for Lipid Storage Modulators (AID 1519); conditions: Drosophila S3 cells, BODIPY lipid droplet/cell ratio, laser cytometry, cells loaded with oleic acid
# How it was run: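 Cells seeded at 5,000 per well were treated with compounds over a concentration series and loaded with oleic acid (400 uM, as added). Lipid droplet fluorescence (488 nm excitation, 500-530 nm channel) was read by laser-scanning cytometry and normalized to 20 uM Triacsin C.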
# [3] = qHTS Assay for Modulators of Human Peripheral Myelin Protein 22 (PMP22) Expression/Activity (AID 1967); conditions: Cell-based PMP22 reporter, dual-color luciferase ratio
# How it was run: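 MSC80 mouse Schwann cells stably carrying Pmp22 promoter–green click beetle luciferase plus EF-alpha–red luciferase control were dosed for 24h at 37 °C. Dual-colour luminescence was filter-overlap corrected; %Activity came from green/red ratio versus untreated cells.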
# [4] = qHTS drug screen for cell cycle checkpoint inhibitors in PARPi-resistant BRCA-mutant ovarian cancer cell lines. (AID 1963452); conditions: PEO1/OlaR viability, CellTiter-Glo luminescence, 96 h
# How it was run: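 PEO1, PEO4 and PEO1/OlaR ovarian cancer cells, 600 per well, exposed 96 h at 37C to a dilution series. Viability read by CellTiter-Glo luminescence, normalized to DMSO and empty wells; activity summarized as Z-AUC.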
# [5] = qHTS for identification of novel therapeutic agents for treatment of microphthalmiaassociated transcription factor (MiT) renal cell carcinoma (RCC) (AID 1963991); conditions: CellTiter-Glo, 48 h; for z-score: stronger effect = lower value
# How it was run: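 Three TFE3-fusion RCC cell lines (UOK109, UOK124, UOK145), 500 cells/well, were exposed to the 1912-compound MIPE 4.0 library for 48 hours at 37 C. Viability was read by CellTiter-Glo luminescence, normalised to DMSO (100%) and empty wells (0%), with 11-concentration curve fits.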
# [6] = qHTS assay for small molecule antagonists of glucocorticoid receptor signaling (AID 588533); conditions: HeLa MMTV-bla, GRE beta-lactamase ratio, antagonist mode, 18 h; measured here: W530 channel AC50
# [7] = qHTS assay for small molecule antagonists of peroxisome proliferator-activated receptor delta signaling (AID 588535); conditions: HEK293T PPARd-UAS-bla, beta-lactamase FRET ratio, 18 h; 460 nm channel;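 note: cells co-treated with a PPAR-delta agonist as stimulator during compound exposure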
# How it was run: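 Beta-lactamase reporter read-out (405 nm excitation, 460/530 nm emission) after CCF4 loading for 2 hrs at RT. HEK293T PPAR-delta-UAS-bla cells, 2% charcoal/dextran FBS, compounds for 18 hrs at 37 C. Hill fit gave IC50 and efficacy.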
# [8] = qHTS assay for small molecule agonists of retinoid X receptor alpha signaling (AID 588544); conditions: HEK293T RXRa-UAS-bla, beta-lactamase reporter, 18 h; 530 nm emission
# [9] = qHTS assay for small molecule antagonists of retinoid X receptor alpha signaling (AID 588546); conditions: HEK293T RXRa-UAS-bla, beta-lactamase ratio, antagonist mode; measured here: W530 green channel, cytotoxicity proxy;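 note: cells stimulated with 9-cis-retinoic acid as agonist; % is set by controls: 0 for no effect and ±100 for the full control effect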
# How it was run: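 Beta-lactamase reporter inhibition, read as CCF4 fluorescence ratio (ex 405, em 460/530 nm) after 2 h at RT. HEK293T UAS-bla cells, 2500/well, were stimulated with 9-cis-RA at 500 or 100 nM final alongside test compound for 18 h at 37 C.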
# [10] = qHTS Assay for Inhibitors of PDE-IV (AID 607); conditions: HEK293 ACTOne CNG channel cells, membrane potential fluorescence; measured here: parental cell counter-screen
# How it was run: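 ACTOne HEK293 cells carry a modified cAMP-gated CNG channel and express endogenous PDE4; plated 1000 cells/well, compounds up to 22.9 uM final. Membrane-potential dye fluorescence (ex 535/em 590) was read; parental cells received 10 uM forskolin + 100 uM RO 20-1724.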
# [11] = qHTS Validation Assay to Find Inhibitors of Chronic Active B-Cell Receptor Signaling (AID 485345); conditions: ABC-DLBCL cells, chronic BCR signaling reporter
# How it was run: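 TMD8 ABC-DLBCL cells stably carrying doxycycline-inducible IkappaBalpha–green luciferase fusion plus unfused red luciferase; compounds 46 uM to 3 nM, 4 h at 37C with doxycycline. Corrected green/red luminescence ratio normalized to 10 uM MG-132 and basal cell wells; curves fitted.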
# [12] = Nrf2 qHTS screen for inhibitors: Validation (AID 493153); conditions: A549 ARE-Fluc reporter, 18-24 h; AC50: CellTiter-Fluor fluorescence read, measured here: cytotoxicity CellTiter-Fluor AC50; viability change: measured here: cytotoxicity max response
# How it was run: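 Concentration-response test in A549 ARE_Fluc reporter cells (5% FBS OPTI-MEM), compound exposure 18-24 h at 37°C, 5% CO2. Cell viability measured first by CellTiter-Fluor fluorescence; ARE-driven luciferase luminescence then measured as Nrf2 activity.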
# [13] = measured here: cell count channel max response
# [14] = measured here: cell number channel AC50
# [15] = measured here: lipid (BODIPY) channel AC50
# [16] = measured here: lipid channel max response
# [17] = measured here: red reporter channel AC50, EF-alpha promoter control reporter in MSC80 mouse Schwann cells
# [18] = TFE3-RCC UOK109 viability, measured here: UOK109 Z-AUC
# [19] = TFE3-RCC viability, measured here: UOK124 Z-AUC
# [20] = TFE3-RCC viability, measured here: UOK145 Z-AUC
# [21] = measured here: green reporter channel AC50, mouse Pmp22 promoter in mouse Schwann cells
# [22] = measured here: PEO1 parental viability
# [23] = TFE3-RCC viability, measured here: UOK124 cell viability
# [24] = TFE3-RCC viability, measured here: UOK145 cell viability
smiles,measurement,setting,value
Nc1nc2ccc(OC(F)(F)F)cc2s1,AC50,[1]; measured here: GFP channel,"12.6 µM [rising, single point]"
same,AC50,[1]; measured here: RFP channel,"12.6 µM [rising, single point]"
same,max response,[2]; [13],111%
same,AC50,[2]; [14],"12.6 µM [rising, partial curve, poor fit]"
same,AC50,[2]; [15],"14.1 µM [rising, partial curve, poor fit]"
same,max response,[2]; [16],150%
same,AC50,[3]; [17],"47.8 µM [falling, partial curve]"
same,AC50,[4]; measured here: PEO4 viability,"27.5 µM [falling, single point]"
same,z-score,[5]; [18],0.498
same,z-score,[5]; [19],0.539
same,z-score,[5]; [20],0.00644
O=c1cc(-c2ccc(O)cc2)oc2cc(O)cc(O)c12,AC50,[1]; measured here: GFP channel,"20 µM [falling, partial curve]"
same,AC50,[1]; measured here: RFP channel,"12.6 µM [falling, partial curve]"
same,max response,[2]; [13],-25.6% and 78.1%
same,AC50,[2]; [14],"35.5 µM [rising, partial curve, poor fit]"
same,AC50,[2]; [15],"20 µM [falling, single point] and 39.8 µM [rising, partial curve, poor fit]"
same,max response,[2]; [16],-31.1% and 99.8%
same,AC50,[3]; [21],"3.01 µM [rising, full curve]"
same,AC50,[3]; [17],"60.1 µM [falling, partial curve, poor fit]"
same,AC50,[6],"39.8 µM [falling, partial curve, poor fit]"
same,max response,[7],-47.3% and -53.6%
same,max response,[8],62.3% and 73%
same,max response,[9],32.4% and 36.5%
same,AC50,[4]; [22],"24.5 µM [falling, single point]"
same,AC50,[4]; measured here: PEO4 viability,"19.5 µM [falling, single point]"
same,z-score,[5]; [18],-0.339
same,z-score,[5]; [19],-0.371
same,AC50,[5]; [23],"2.96 µM [falling, full curve]"
same,z-score,[5]; [20],0.148
same,AC50,[5]; [24],"14.8 µM [falling, partial curve]"
Oc1ccc(-c2nc(-c3ccc(F)cc3)c(-c3ccncc3)[nH]2)cc1,AC50,[10],"15.8 µM [falling, partial curve]"
same,AC50,[1]; measured here: GFP channel,"1.12 µM [falling, full curve]"
same,AC50,[1]; measured here: RFP channel,"1.12 µM [falling, full curve]"
same,max response,[2]; [13],95.8% and 1.66%
same,AC50,[2]; [14],"3.16 µM [rising, full curve]"
same,AC50,[2]; [15],"4.47 µM [rising, partial curve]"
same,max response,[2]; [16],126% and -0.15%
same,AC50,[3]; [21],"33.8 µM [falling, partial curve]"
same,AC50,[3]; [17],"26.9 µM [falling, full curve]"
same,AC50,[11]; measured here: CBG/CBR ratio read-out,"20.6 µM [falling, partial curve]"
same,AC50,[11]; measured here: CBR control luciferase (viability counter),"0.0731 µM [falling, full curve]"
same,viability change,[12],6.98%
same,AC50,[4]; [22],"17.4 µM [falling, single point]"
same,AC50,[4]; measured here: PEO4 viability,"12.3 µM [falling, partial curve]"
same,z-score,[5]; [18],1.16
same,z-score,[5]; [19],2.18
same,AC50,[5]; [23],"37.2 µM [falling, single point]"
same,z-score,[5]; [20],0.932
same,AC50,[5]; [24],"29.6 µM [falling, single point]"
CC(C)C[C@H](N)CSSC[C@@H](N)CC(C)C,AC50,[1]; measured here: GFP channel,"31.6 µM [falling, single point]"
same,AC50,[1]; measured here: RFP channel,"17.8 µM [falling, single point]"
same,max response,[2]; [13],47%
same,AC50,[2]; [14],"39.8 µM [rising, single point]"
same,AC50,[2]; [15],"8.91 µM [falling, single point]"
same,max response,[2]; [16],51%
same,AC50,[3]; [21],"53.6 µM [falling, partial curve]"
same,AC50,[3]; [17],"53.6 µM [falling, partial curve, poor fit]"
Cc1ccc(O)c(N=Nc2ccccc2)n1,AC50,[1]; measured here: GFP channel,"22.4 µM [falling, single point]"
same,AC50,[1]; measured here: RFP channel,"10 µM [falling, partial curve]"
same,max response,[2]; [13],75.3% and 64%
same,AC50,[2]; [14],"35.5 µM [rising, partial curve, poor fit]"
same,AC50,[2]; [15],"35.5 µM [rising, partial curve, poor fit]"
same,max response,[2]; [16],100% and 66.3%
same,AC50,[3]; [21],"3.01 µM [rising, full curve]"
N#CC(Cc1ccc(O)c(O)c1)C(=O)N1CCc2ccccc21 (centres undefined),AC50,[1]; measured here: GFP channel,"3.55 µM [falling, partial curve]"
same,AC50,[1]; measured here: RFP channel,"3.55 µM [falling, partial curve]"
same,max response,[2]; [13],-72.6%
same,AC50,[2]; [14],"12.6 µM [falling, partial curve, poor fit]"
same,AC50,[2]; [15],"15.8 µM [falling, partial curve]"
same,max response,[2]; [16],-100%
same,AC50,[3]; [17],"26.9 µM [falling, full curve]"
CC[C@@H](C)[C@H]1O[C@]2(CC[C@@H]1C)C[C@@H]1C[C@@H](C/C=C(\C)[C@@H](O[C@H]3C[C@H](OC)[C@@H](O[C@H]4C[C@H](OC)[C@@H](O)[C@H](C)O4)[C@H](C)O3)[C@@H](C)/C=C/C=C3\CO[C@@H]4[C@H](O)C(C)=C[C@@H](C(=O)O1)[C@]34O)O2,AC50,[1]; measured here: GFP channel,"11.2 µM [falling, partial curve]"
same,AC50,[1]; measured here: RFP channel,"7.94 µM [falling, partial curve]"
same,max response,[2]; [13],-75.2%
same,AC50,[2]; [14],"17.8 µM [falling, full curve, poor fit]"
same,AC50,[2]; [15],"20 µM [falling, full curve, poor fit]"
same,max response,[2]; [16],-80%
same,AC50,[3]; [21],"15.1 µM [falling, full curve]"
same,AC50,[3]; [17],"10.7 µM [falling, full curve]"

# Already shown: entries from further up.
smiles,measurement,setting,value
Oc1ccc(-c2nc(-c3ccc(F)cc3)c(-c3ccncc3)[nH]2)cc1,AC50,[10],"15.8 µM [falling, partial curve]"
same,AC50,[1]; measured here: GFP channel,"1.12 µM [falling, full curve]"
same,AC50,[1]; measured here: RFP channel,"1.12 µM [falling, full curve]"

# From PubChem BioAssay (NCATS)
